Data reported in publication PMC5430665.

Amino acid sequences for entries named in this document (tags omitted).
UniProt O75821: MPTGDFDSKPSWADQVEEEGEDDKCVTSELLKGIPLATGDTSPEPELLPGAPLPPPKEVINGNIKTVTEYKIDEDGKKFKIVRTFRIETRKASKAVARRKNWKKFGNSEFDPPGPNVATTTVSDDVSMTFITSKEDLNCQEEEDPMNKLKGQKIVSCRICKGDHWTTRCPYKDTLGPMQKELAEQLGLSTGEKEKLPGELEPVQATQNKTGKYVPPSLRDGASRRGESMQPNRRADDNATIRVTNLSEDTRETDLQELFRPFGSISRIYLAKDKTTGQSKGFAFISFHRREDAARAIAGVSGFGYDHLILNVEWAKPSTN

Molecular target: T1, 3XFLAG-OFD1 (human) (UniProt O75665)
T1 sequence: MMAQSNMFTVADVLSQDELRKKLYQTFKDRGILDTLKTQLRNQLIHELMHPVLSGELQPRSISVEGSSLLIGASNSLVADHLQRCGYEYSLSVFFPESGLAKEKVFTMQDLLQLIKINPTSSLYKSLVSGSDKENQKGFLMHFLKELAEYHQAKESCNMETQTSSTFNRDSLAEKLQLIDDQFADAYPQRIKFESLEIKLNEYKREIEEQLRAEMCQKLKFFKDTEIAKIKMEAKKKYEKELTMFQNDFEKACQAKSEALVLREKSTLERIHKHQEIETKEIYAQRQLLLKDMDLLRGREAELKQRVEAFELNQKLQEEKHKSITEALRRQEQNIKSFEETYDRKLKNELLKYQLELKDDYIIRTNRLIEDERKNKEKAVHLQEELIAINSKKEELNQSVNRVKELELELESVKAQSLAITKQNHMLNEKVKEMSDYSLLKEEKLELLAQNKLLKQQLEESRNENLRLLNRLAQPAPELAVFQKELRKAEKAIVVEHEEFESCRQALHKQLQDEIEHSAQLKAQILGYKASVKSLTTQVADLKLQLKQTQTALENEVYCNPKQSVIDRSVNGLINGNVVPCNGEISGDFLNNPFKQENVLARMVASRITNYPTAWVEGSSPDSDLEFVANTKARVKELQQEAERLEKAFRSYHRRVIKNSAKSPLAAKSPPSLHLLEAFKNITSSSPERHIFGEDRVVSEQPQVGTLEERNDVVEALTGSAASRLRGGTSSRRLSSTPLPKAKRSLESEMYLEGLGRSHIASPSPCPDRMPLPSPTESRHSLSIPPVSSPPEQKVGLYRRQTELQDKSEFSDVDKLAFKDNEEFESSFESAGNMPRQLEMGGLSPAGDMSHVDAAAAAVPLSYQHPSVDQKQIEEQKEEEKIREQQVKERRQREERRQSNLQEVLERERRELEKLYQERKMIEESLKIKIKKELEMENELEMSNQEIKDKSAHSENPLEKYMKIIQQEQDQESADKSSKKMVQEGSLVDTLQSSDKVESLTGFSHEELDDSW
Experiment: affinity purification with mass spectrometry; lysates of HEK293 cells expressing 3XFLAG-OFD1 (empty vector as control), M2 anti-FLAG agarose beads overnight at 4 °C, washing buffer with 300 mM NaCl, elution with 3XFLAG peptide, SDS-PAGE, nanoLC-MS/MS

Substance: eIF3G (from UniProt O75821 1-320)
- binding: binds

No constants are given. Whether binding was seen depends on the method and setting. In cells and extracts the contact can be indirect. These calls come from enrichment with a bait or labelling near it, and not all partners need be listed. Where a sequence is shown, tags or fusion partners need not be part of it.
